Experimental data: US8859620B2, “Phthalanilate compounds and methods of use” (University of Notre Dame du Lac, priority 2009, dated 2014)
For at least one compound, name, drawing or mass did not settle the structure.

test system: the bacteria examined; assay: Bacterial inhibition at 25 μg/mL, micro dilution in Mueller Hinton broth (Table 11); assay type: cell-based; conditions: compound at 25 μg/mL in Mueller Hinton broth, final DMSO 1.25% or 2.5%

Row | Compound | Bacterial inhibition: growth (+) or no growth (−) at 25 μg/mL
1 | O=C(O)c1c(Br)c(Br)c(Br)c(Br)c1C(=O)Nc1ccccn1 [Compound 219] | + (growth (+) ... at 25 μg/mL)
2 | Cc1ccc(NC(=O)c2c(Br)c(Br)c(Br)c(Br)c2C(=O)O)cc1Cl [Compound 231] | + (growth (+) ... at 25 μg/mL)
3 | O=C(O)c1c(F)c(F)c(F)c(F)c1C(=O)Nc1ccc(C(F)(F)F)cc1 [Compound 169] | + (growth (+) ... at 25 μg/mL)
4 | CC[C@@H](CO)NC(=O)C1CCC(C)CC1C(=O)O (stereo partly shown) [Compound 161] | + (growth (+) ... at 25 μg/mL)
5 | O=C(O)c1ccccc1C(=O)Nc1cccc2cccnc12 [Compound 23] | + (growth (+) ... at 25 μg/mL)
6 | C[C@H](O)CNC(=O)c1c(Br)c(Br)c(Br)c(Br)c1C(=O)O [Compound 197] | + (growth (+) ... at 25 μg/mL)
7 | O=C(O)/C=C\C(=O)Nc1cccc2c1CCCC2 [Compound 51] | + (growth (+) ... at 25 μg/mL)
8 | CCN(CC)c1ccc(NC(=O)/C=C\C(=O)O)cc1 [Compound 32] | + (growth (+) ... at 25 μg/mL)
9 | O=C(O)/C=C\C(=O)Nc1ccccc1OC(F)(F)F [Compound 37] | + (growth (+) ... at 25 μg/mL)
10 | O=C(O)c1ccccc1C(=O)Nc1ccc2c(c1)OCCO2 [Compound 26] | + (growth (+) ... at 25 μg/mL)
11 | COCCOCCOc1ccc(NC(=O)c2ccccc2C(=O)O)c[n+]1[O-] [Compound 406] | + (growth (+) ... at 25 μg/mL)
12 | O=C(O)/C=C\C(=O)Nc1ccc2c(c1)OCCO2 [Compound 36] | + (growth (+) ... at 25 μg/mL)
13 | COCCOCCOc1ccc(NC(=O)c2c(Cl)c(Cl)c(Cl)c(Cl)c2C(=O)O)cn1 [Compound 402] | + (growth (+) ... at 25 μg/mL)
14 | O=C(O)c1ccccc1C(=O)Nc1ccc(OCc2ccccc2)c(Cl)c1 [Compound 272] | + (growth (+) ... at 25 μg/mL)
15 | CCN(CC)c1ccc(NC(=O)c2ccccc2C(=O)O)cc1 [Compound 22] | + (growth (+) ... at 25 μg/mL)
16 | O=C1OC(=O)c2c(Br)c(Br)c(Br)c(Br)c21 [Compound 249] | + (growth (+) ... at 25 μg/mL)
17 | CC1CCC(C(=O)NC(CO)[C@@H](C)O)C(C(=O)O)C1 (stereo partly shown) [Compound 190] | + (growth (+) ... at 25 μg/mL)
18 | O=C(O)CC1(CC(=O)NC(CO)[C@H](O)c2ccc([N+](=O)[O-])cc2)CCCC1 (stereo partly shown) [Compound 248] | + (growth (+) ... at 25 μg/mL)
19 | O=C(O)c1ccccc1C(=O)Nc1ccccc1OC(F)(F)F [Compound 27] | + (growth (+) ... at 25 μg/mL)
20 | O=C(O)c1c(Br)c(Br)c(Br)c(Br)c1C(=O)NC1CCCCC1 [Compound 195] | + (growth (+) ... at 25 μg/mL)
21 | O=C(O)c1ccccc1C(=O)Nc1ccccc1 [Compound 2] | + (growth (+) ... at 25 μg/mL)

Row | Compound | Bacterial inhibition: growth (+) or no growth (−) at 25 μg/mL
22 | C[C@H](O)CNC(=O)C1=C(C(=O)O)SCCS1 [Compound 124] | + (growth (+) ... at 25 μg/mL)
23 | CC(C)CCNC(=O)C1CCC(C)CC1C(=O)O (stereo not shown) [Compound 153] | + (growth (+) ... at 25 μg/mL)
24 | CCCCOCC(O)COc1ccc(NC(=O)c2c(F)c(F)c(F)c(F)c2C(=O)O)cc1Cl (stereo not shown) [Compound 349] | + (growth (+) ... at 25 μg/mL)
25 | O=C(O)c1ccccc1C(=O)NCc1ccccc1 [Compound 3] | + (growth (+) ... at 25 μg/mL)
26 | O=C(O)c1c(F)c(F)c(F)c(F)c1C(=O)Nc1ccc(OCc2ccccc2)nc1 [Compound 363] | + (growth (+) ... at 25 μg/mL)
27 | Cc1ccc(NC(=O)C2CCC(C)CC2C(=O)O)cc1Cl (stereo not shown) [Compound 186] | + (growth (+) ... at 25 μg/mL)
28 | O=C(O)/C=C\C(=O)N(Cc1ccccc1)Cc1ccccc1 [Compound 16] | + (growth (+) ... at 25 μg/mL)
29 | CC1CCC(C(=O)N[C@@H](CO)[C@H](C)O)C(C(=O)O)C1 (stereo partly shown) [Compound 189] | + (growth (+) ... at 25 μg/mL)
30 | O=C(O)C1=C(C(=O)Nc2nccs2)SCCS1 [Compound 114] | + (growth (+) ... at 25 μg/mL)
31 | CCN(CC)C(=O)c1ccccc1C(=O)O [Compound 9] | + (growth (+) ... at 25 μg/mL)
32 | CC(Oc1ccc(NC(=O)c2c(F)c(F)c(F)c(F)c2C(=O)O)cc1Cl)c1ccccc1 (stereo not shown) [Compound 380] | + (growth (+) ... at 25 μg/mL)
33 | COCCOCCOc1ccc(NC(=O)c2c(F)c(F)c(F)c(F)c2C(=O)O)c[n+]1[O-] [Compound 407] | + (growth (+) ... at 25 μg/mL)
34 | CC1CCC(C(=O)N[C@@H](C)CO)C(C(=O)O)C1 (stereo partly shown) [Compound 160] | + (growth (+) ... at 25 μg/mL)
35 | O=C(O)c1c(F)c(F)c(F)c(F)c1C(=O)Nc1ccc(Cl)c(C(F)(F)F)c1 [Compound 166] | + (growth (+) ... at 25 μg/mL)
36 | CC1CCC(C(=O)Nc2cccc(OC(C)C)c2)C(C(=O)O)C1 (stereo not shown) [Compound 180] | + (growth (+) ... at 25 μg/mL)
37 | O=C(O)c1ccccc1C(=O)N(Cc1ccccc1)Cc1ccccc1 [Compound 6] | + (growth (+) ... at 25 μg/mL)
38 | O=C(O)/C=C\C(=O)N1CCCC1 [Compound 11] | + (growth (+) ... at 25 μg/mL)
39 | CC1CCC(C(=O)NC(CO)Cc2ccccc2)C(C(=O)O)C1 (stereo not shown) [Compound 192] | + (growth (+) ... at 25 μg/mL)
40 | O=C(O)c1c(Br)c(Br)c(Br)c(Br)c1C(=O)NC(CO)Cc1ccccc1 (stereo not shown) [Compound 236] | + (growth (+) ... at 25 μg/mL)
41 | CC[C@H](CO)NC(=O)C1=C(C(=O)O)SCCS1 [Compound 125] | + (growth (+) ... at 25 μg/mL)
42 | CC1CCC(C(=O)NC2CCCCC2)C(C(=O)O)C1 (stereo not shown) [Compound 150] | + (growth (+) ... at 25 μg/mL)

Row | Compound | Bacterial inhibition: growth (+) or no growth (−) at 25 μg/mL
43 | O=C(O)[C@H]1CCCC[C@H]1C(=O)NCc1ccco1 [Compound 112] | + (growth (+) ... at 25 μg/mL)
44 | O=C(O)c1c(Br)c(Br)c(Br)c(Br)c1C(=O)N[C@@H](CO)[C@@H](O)c1ccc([N+](=O)[O-])cc1 [Compound 237] | + (growth (+) ... at 25 μg/mL)
45 | O=C(O)/C=C\C(=O)NCc1ccccc1 [Compound 13] | + (growth (+) ... at 25 μg/mL)
46 | O=C1c2c(Br)c(Br)c(Br)c(Br)c2C(=O)N1c1ccc(OCc2ccccc2)c(Cl)c1 [Compound 227] | + (growth (+) ... at 25 μg/mL)
47 | CN(C(=O)c1ccccc1C(=O)O)c1cccnc1 [Compound 7] | + (growth (+) ... at 25 μg/mL)
48 | O=C(O)CC1(CC(=O)N[C@@H](CO)[C@@H](O)c2ccc([N+](=O)[O-])cc2)CCCC1 [Compound 240] | + (growth (+) ... at 25 μg/mL)
49 | CC(C)CCNC(=O)c1c(Br)c(Br)c(Br)c(Br)c1C(=O)O [Compound 216] | + (growth (+) ... at 25 μg/mL)
50 | O=C(O)[C@H]1CC[C@H](c2ccccc2)C[C@H]1C(=O)NCc1ccco1 [Compound 113] | + (growth (+) ... at 25 μg/mL)
51 | Cc1ccccc1COc1ccc(NC(=O)c2c(F)c(F)c(F)c(F)c2C(=O)O)cc1Cl [Compound 384] | + (growth (+) ... at 25 μg/mL)
52 | O=C(O)c1ccccc1C(=O)Nc1cccc2c1CCCC2 [Compound 41] | + (growth (+) ... at 25 μg/mL)
53 | CC(C)CNC(=O)c1ccccc1C(=O)O [Compound 4] | + (growth (+) ... at 25 μg/mL)
54 | CC1CCC(C(=O)Nc2ccc3c(c2)OCCO3)C(C(=O)O)C1 (stereo not shown) [Compound 164] | + (growth (+) ... at 25 μg/mL)
55 | O=C(O)/C=C\C(=O)Nc1cccc2ccc(O)cc12 [Compound 57] | + (growth (+) ... at 25 μg/mL)
56 | O=C(O)c1ccccc1C(=O)Nc1ccccc1-n1cccc1 [Compound 42] | + (growth (+) ... at 25 μg/mL)
57 | O=C(Nc1ccccc1OC(F)(F)F)c1cccc([N+](=O)[O-])c1C(=O)O [Compound 84] | + (growth (+) ... at 25 μg/mL)
58 | O=C(Nc1ccc(OCc2ccccc2)nc1)c1ccccc1 [Compound 362] | + (growth (+) ... at 25 μg/mL)
59 | COc1ccc(NC(=O)c2c(F)c(F)c(F)c(F)c2C(=O)O)cc1OC [Compound 167] | + (growth (+) ... at 25 μg/mL)
60 | CC1CCC(C(=O)Nc2ccc(Oc3ccccc3)cc2)C(C(=O)O)C1 (stereo not shown) [Compound 177] | + (growth (+) ... at 25 μg/mL)
61 | CN(C(=O)/C=C\C(=O)O)c1cccnc1 [Compound 17] | + (growth (+) ... at 25 μg/mL)
